Source: PMC11011927
No constants are given. Whether binding was seen depends on the method and setting. In cells and extracts the contact can be indirect. Some results given as binding are weak or reduced against the parent protein; the word gives no strength. Each block holds one substance with its values, some of them ahead of it.

Tests used:
Assay in all cases: cross-linking; oxidative cross-linking with copper phenanthroline (CuP) of HEK 293T cells stably expressing the transporter, 22 °C, 15 min, HEPES buffered saline pH 7.4, stopped with 10 mM N-ethylmaleimide; lysate in non-reducing sample buffer, anti-FLAG immunoblot; 100 mM DTT on lysates to reverse
[1] = biological target: human dopamine transporter (hDAT) D301A (human) (UniProt Q01959)
[2] = biological target: human dopamine transporter (hDAT) D301N (human) (UniProt Q01959)
[3] = biological target: human dopamine transporter (hDAT) E307A (human) (UniProt Q01959)
[4] = biological target: human dopamine transporter (hDAT) R304A (human) (UniProt Q01959)
[5] = biological target: human dopamine transporter (hDAT) WT (human) (UniProt Q01959)

- binding [1]: binds
Substance: human dopamine transporter (hDAT) D301A (from UniProt Q01959 1-620)

- binding [2]: binds
Substance: human dopamine transporter (hDAT) D301N (from UniProt Q01959 1-620)

- binding [3]: binds
Substance: human dopamine transporter (hDAT) E307A (from UniProt Q01959 1-620)

- binding [4]: binds
Substance: human dopamine transporter (hDAT) R304A (from UniProt Q01959 1-620)

- binding [5]: binds
Substance: human dopamine transporter (hDAT) WT (from UniProt Q01959 1-620)
